Measurements: PubChem BioAssay AID1688 (National Center for Advancing Translational Sciences (NCATS), 2009)
In all, about 220,000 compounds went through this assay and about 2,400 (1.1%) were called active. The inconclusive results got no clear call from the source; some entries with a clear call stand among them for comparison. Calls come from the whole dose curve; as a rule, active = well fitted inhibition curve with a large enough effect; inconclusive = small, poorly fitted or top-dose-only effect, or effect the other way; inactive = no such curve, though single readings can be large or run the other way. Where the call is inconclusive, the potency comes from a doubtful curve fit.

Test: qHTS Multiplex Assay to Identify Dual Action Probes in a Cell Model of Huntington: Aggregate Formation (GFP); note: nearly all actives have a fitted effect of over 60% in size
Settings: PC12 HttQ103-GFP aggregates, Acumen cytometry, 40 h; activity change, negative = inhibition: at 46.1 µM (top of the series) unless noted
Summary of the method: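 PC12/HTTQ103-GFP, ecdysone-inducible; teb 100 nM; cpd qHTS titration; GFP aggregates read on laser cytometer, Ex 488/Em 500-530 nm.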
% is set by controls: 0 for no effect and ±100 for the full control effect; potency is the fitted concentration of half-maximal effect.

| SMILES | activity change, negative = inhibition | Potency |
| --- | --- | --- |
| O=S(=O)(NCCCc1ccccc1)c1ccccc1 | inactive: -16.8% |  |
| COc1cccc(/C=N/NC(=O)CN(C2=NS(=O)(=O)c3ccccc32)c2ccccc2)c1 |  | inconclusive: 35.5 µM [activator, single point] |
| COc1cc(CO)ccc1OCC(=O)Nc1ccc(Br)cc1 |  | inconclusive: 0.501 µM [activator, partial curve, poor fit] |
| O=C(Cn1nnc(-c2ccc(CN3CCOCC3)cc2)n1)Nc1nc(-c2ccccc2)cs1 |  | inconclusive: 35.5 µM [inhibitor, single point] |
| O=C(NC(=S)Nc1cccc2cnccc12)c1ccccc1 |  | inconclusive: 3.55 µM [inhibitor, single point] |
| CCOC(=O)c1ccc(N=c2sc(C(=O)OC)cc(=O)n2-c2ccc(C(=O)OCC)cc2)cc1 |  | inconclusive: 3.55 µM [activator, full curve] |
| COc1cc(C(=O)OCC(=O)NCc2ccc(F)cc2)cc(NC(=O)c2cccs2)c1OC |  | inconclusive: 35.5 µM [activator, single point] |
| N#C/C(=C1/CCCCCN1)c1nnc2n1CCCCC2 | inactive: -24.7% |  |
| Cc1cccc(C)c1NC(=O)c1ccc(CN2CCc3ccccc3C2)cc1 |  | inconclusive: 35.5 µM [inhibitor, single point] |
| Cc1ccc(C(=O)NC(N2CCCC2)C(Cl)(Cl)Cl)cc1 (stereo not given) | inactive: -2.36% |  |
| CSc1nc(N)nc(SCCS(=O)(=O)c2ccc(Cl)cc2)c1C#N |  | active: 10 µM |
| O=C(NCCc1c[nH]c2ccccc12)C(=O)NCC1OCCCN1S(=O)(=O)c1cccs1 (stereo not given) | inactive: -23.9% |  |
| O=C(CNC(=O)c1ccccc1)Nc1ccsc1C(=O)O | inactive: -15.9% |  |
| COC(=O)c1ccc(NC(=O)c2ccccc2NS(=O)(=O)c2ccccc2)cc1 |  | active: 11.2 µM |
| Cc1ccc(-n2cc(C(=O)c3cc(Cl)ccc3O)cc(C#N)c2=O)cc1 |  | active: 12.6 µM |
| O=C(O)CC1S/C(=N/N=C/c2ccc(-c3ccc(Cl)cc3[N+](=O)[O-])o2)NC1=O (stereo not given) | inactive: 6.76% |  |
| COc1ccc(S(=O)(=O)N(C(C)=O)c2ccc3oc(=O)sc3c2)cc1 |  | inconclusive: 1.12 µM [activator, full curve, poor fit] |
| C/C(=N\NC(=O)c1ccc(C)cc1)C1C(=O)c2ccccc2C1=O |  | inconclusive: 35.5 µM [inhibitor, single point] |
| CCCN1Cc2cccc(C(=O)N3CCN(c4cc(Cl)ccc4C)CC3)c2C1=O |  | inconclusive: 35.5 µM [inhibitor, single point] |
| CN(C)/C=C1\C(=O)ON=C1c1ccccc1 | inactive: 27.2% |  |
| O=C1Nc2ccccc2CCC1Sc1nnc(-c2ccc(Cl)cc2)s1 (stereo not given) |  | inconclusive: 35.5 µM [inhibitor, single point] |
| COC(=O)c1cc(=O)n(CCc2ccccc2F)c(=Nc2ccc(F)c(Cl)c2)s1 |  | inconclusive: 35.5 µM [inhibitor, single point] |
| O=C(CCc1ccccc1)OCC(=O)c1cccc([N+](=O)[O-])c1 |  | inconclusive: 5.62 µM [activator, single point] |

Whole records, looked up by structure.
O=C(NCCc1c[nH]c2ccccc12)C(=O)NCC1OCCCN1S(=O)(=O)c1cccs1 (stereo not given) is listed with activity change, negative = inhibition: inactive: -23.9%
C/C(=N\NC(=O)c1ccc(C)cc1)C1C(=O)c2ccccc2C1=O is listed with Potency: inconclusive: 35.5 µM [inhibitor, single point]

More entries:

| SMILES | activity change, negative = inhibition | Potency |
| --- | --- | --- |
| CCCc1nc2scc(-c3ccccc3)c2c(=O)n1N |  | inconclusive: 22.4 µM [inhibitor, partial curve] |
| O=C(CSc1nnc(-c2ccccc2O)o1)Oc1ccc(Br)cc1 |  | inconclusive: 0.631 µM [inhibitor, full curve, poor fit] |
| COc1cccc(C(=O)NCCn2ccc3ccccc32)c1 |  | inconclusive: 35.5 µM [inhibitor, single point] |
| COc1ccccc1-c1noc(CSc2nc(C)cc(=O)[nH]2)n1 |  | inconclusive: 0.794 µM [inhibitor, single point] |
| CCCCOc1cccc(C(=O)NNC(=S)NC2CCCCC2)c1 |  | inconclusive: 35.5 µM [inhibitor, single point] |
| Cc1ccc(-n2cnc3sc(C)c(C)c3c2=O)cc1 | inactive: 1.22% |  |
| CCOCC(=O)Nc1ccc(C)c(Cl)c1 | inactive: 6.7% |  |
| CN(C)S(=O)(=O)c1cccc(NC(=O)c2ccc(N3CCOCC3)c([N+](=O)[O-])c2)c1 |  | inconclusive: 6.31 µM [inhibitor, single point] |
| COc1ccc(C(=O)N/N=C(\C)c2ccc3c(c2)C2C=CCC2C(c2ccccc2)N3)cc1 (stereo not given) |  | inconclusive: 2 µM [activator, full curve] |
| O=C(NC1CCCC1)c1csc2c1CCCC2 |  | inconclusive: 3.55 µM [activator, partial curve] |
| Cc1cccc(C(=O)Oc2ccccc2C(=O)N2CCOCC2)c1 | inactive: 14.2% [at 9.22 µM] |  |
| CCOC(=O)N1CC=C2C(C#N)=C(N)C(C#N)(C#N)[C@H](c3ccsc3)[C@H]2C1 |  | active: 0.562 µM |
| Brc1ccc(Oc2nsnc2N2CCOCC2)cc1 |  | inconclusive: 14.1 µM [inhibitor, single point] |
| COc1cccc(CNC(=O)C2CCC(CNS(=O)(=O)c3cccc4nsnc34)CC2)c1 (stereo not given) | inactive: -10.9% |  |
| Cc1ccccc1N=Cc1cc2c(cc1O)OC(N)=C(C#N)C2c1ccccc1 (stereo not given) |  | inconclusive: 11.2 µM [inhibitor, partial curve] |
| NC(=O)/C(=N\OC(=O)c1ccco1)c1nc(-c2ccc(Br)cc2)cs1 |  | inconclusive: 12.6 µM [inhibitor, single point] |
| O=C(NCc1cccnc1)c1ccc(-c2ccc(Cl)cc2)o1 | inactive: 9.97% [at 9.22 µM] |  |
| Cc1ccc(N2C(=O)c3ccccc3C2C(=O)c2cc(C)ccc2O)cc1 (stereo not given) | inactive: 24.3% |  |
| O=C(Nc1nc(-c2ccc(S(=O)(=O)N3CCCC3)cc2)cs1)c1cccs1 |  | inconclusive: 35.5 µM [inhibitor, single point] |
| CCOc1ccc(N=c2scc(-c3ccccc3)n2CCO)cc1 |  | inconclusive: 35.5 µM [inhibitor, single point] |
| O=c1[nH]c2ccc(S(=O)(=O)N3CCC(Cc4ccccc4)CC3)cc2o1 | inactive: 3.54% |  |
| COc1ccc(NS(=O)(=O)c2cc(NC(=O)CC(=O)c3ccc([N+](=O)[O-])cc3)ccc2C)cc1 |  | inconclusive: 10 µM [inhibitor, partial curve, poor fit] |
